From patent publication US3984415A, “1-Nitrophenylpyrido [2,3-d] pyrimidine-2,4(1H,3H)-diones” (Hisamitsu Pharmaceutical Co., Inc., priority 1973, dated 1976)

Test system: dd-strain male mice
Conditions: i.p., 72 hours
Description: The lethal dose was estimated from the death of animals 72 hours after administration.

CN1C(=O)CN=C(c2ccccc2)c2cc(Cl)ccc21 [diazepam, reference compound]
acute toxicity (lethal dose): 300 to 1000 mg/kg
